In doi:10.1101/2025.04.18.649622:
Results are given in words; binding and its absence hold for the method and conditions named. In cells and extracts the contact can be indirect. These calls come from enrichment with a bait or labelling near it, and not all partners need be listed. Where a sequence is shown, tags or fusion partners need not be part of it.

Protein sequences, listed by entry. Tags and fused reporters are not part of them.
UniProt Q8TDM6: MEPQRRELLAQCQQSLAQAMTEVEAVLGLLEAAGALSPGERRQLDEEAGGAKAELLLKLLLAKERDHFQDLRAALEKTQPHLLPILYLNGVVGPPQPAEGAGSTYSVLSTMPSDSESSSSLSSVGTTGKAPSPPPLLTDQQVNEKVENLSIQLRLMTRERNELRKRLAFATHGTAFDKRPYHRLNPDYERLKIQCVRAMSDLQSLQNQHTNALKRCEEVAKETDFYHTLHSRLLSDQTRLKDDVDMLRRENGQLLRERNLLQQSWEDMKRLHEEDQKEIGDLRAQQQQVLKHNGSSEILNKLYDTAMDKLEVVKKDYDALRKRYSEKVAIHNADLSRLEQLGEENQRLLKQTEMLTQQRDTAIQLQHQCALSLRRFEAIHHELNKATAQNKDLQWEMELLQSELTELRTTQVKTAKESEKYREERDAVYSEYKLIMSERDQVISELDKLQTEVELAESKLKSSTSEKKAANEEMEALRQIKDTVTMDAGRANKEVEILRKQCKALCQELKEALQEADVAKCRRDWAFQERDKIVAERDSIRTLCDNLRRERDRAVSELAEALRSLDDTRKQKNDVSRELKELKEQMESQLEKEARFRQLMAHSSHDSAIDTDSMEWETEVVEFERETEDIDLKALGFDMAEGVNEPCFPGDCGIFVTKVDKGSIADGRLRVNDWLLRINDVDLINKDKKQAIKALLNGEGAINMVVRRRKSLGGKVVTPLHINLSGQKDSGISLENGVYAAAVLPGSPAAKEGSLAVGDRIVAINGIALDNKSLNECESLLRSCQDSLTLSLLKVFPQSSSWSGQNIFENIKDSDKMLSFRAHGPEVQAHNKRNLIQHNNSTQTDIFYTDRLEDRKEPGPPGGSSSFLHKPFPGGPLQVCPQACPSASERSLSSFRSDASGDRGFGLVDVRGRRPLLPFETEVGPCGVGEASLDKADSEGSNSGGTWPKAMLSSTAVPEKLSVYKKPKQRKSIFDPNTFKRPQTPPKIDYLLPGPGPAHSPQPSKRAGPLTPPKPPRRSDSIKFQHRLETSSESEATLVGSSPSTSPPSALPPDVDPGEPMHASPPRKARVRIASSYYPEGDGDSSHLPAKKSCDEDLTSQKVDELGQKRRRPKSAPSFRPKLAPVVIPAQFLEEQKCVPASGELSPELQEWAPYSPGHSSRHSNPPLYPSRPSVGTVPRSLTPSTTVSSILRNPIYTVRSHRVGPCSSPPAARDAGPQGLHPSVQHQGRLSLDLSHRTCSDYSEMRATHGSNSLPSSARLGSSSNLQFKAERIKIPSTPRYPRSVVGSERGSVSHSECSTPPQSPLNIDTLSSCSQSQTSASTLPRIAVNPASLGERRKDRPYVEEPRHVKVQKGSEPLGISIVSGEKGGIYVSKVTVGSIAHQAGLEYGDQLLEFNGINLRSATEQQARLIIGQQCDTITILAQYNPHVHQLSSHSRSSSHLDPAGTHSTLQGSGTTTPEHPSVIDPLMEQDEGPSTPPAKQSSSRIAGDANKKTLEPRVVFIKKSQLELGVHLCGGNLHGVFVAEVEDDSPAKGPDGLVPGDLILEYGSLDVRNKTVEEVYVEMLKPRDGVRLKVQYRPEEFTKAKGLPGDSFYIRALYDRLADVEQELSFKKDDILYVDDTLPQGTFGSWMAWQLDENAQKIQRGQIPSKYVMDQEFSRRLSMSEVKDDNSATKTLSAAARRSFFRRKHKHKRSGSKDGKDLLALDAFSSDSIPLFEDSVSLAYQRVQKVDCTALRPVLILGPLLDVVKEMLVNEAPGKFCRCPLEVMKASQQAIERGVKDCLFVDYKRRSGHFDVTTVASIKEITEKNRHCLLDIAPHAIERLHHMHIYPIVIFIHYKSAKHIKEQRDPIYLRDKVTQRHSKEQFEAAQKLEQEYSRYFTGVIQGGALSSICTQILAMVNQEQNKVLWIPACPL
UniProt O43639: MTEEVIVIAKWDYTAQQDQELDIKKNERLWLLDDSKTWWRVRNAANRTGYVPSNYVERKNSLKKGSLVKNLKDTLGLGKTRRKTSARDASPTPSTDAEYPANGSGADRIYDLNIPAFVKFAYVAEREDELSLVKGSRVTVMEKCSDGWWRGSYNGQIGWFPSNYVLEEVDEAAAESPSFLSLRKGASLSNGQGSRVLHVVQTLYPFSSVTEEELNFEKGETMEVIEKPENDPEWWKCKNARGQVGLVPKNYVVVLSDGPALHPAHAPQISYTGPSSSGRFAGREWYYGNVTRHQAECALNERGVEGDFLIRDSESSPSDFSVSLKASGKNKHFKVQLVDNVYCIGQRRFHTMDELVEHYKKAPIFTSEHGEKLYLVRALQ
UniProt Q13153: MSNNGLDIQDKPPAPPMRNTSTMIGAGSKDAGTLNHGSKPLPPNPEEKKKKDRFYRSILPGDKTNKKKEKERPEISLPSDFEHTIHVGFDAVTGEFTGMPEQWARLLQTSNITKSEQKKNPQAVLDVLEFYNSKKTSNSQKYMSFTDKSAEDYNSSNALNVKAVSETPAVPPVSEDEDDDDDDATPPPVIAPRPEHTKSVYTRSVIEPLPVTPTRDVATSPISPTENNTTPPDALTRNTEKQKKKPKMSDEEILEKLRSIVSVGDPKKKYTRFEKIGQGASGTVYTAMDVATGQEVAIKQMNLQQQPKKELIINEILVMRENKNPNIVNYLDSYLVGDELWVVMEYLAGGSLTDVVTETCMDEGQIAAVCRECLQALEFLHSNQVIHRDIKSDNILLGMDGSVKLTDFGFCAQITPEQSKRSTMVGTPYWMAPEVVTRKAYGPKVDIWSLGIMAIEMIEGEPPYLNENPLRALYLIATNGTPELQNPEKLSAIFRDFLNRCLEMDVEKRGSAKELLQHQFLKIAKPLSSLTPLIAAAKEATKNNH
UniProt Q13177: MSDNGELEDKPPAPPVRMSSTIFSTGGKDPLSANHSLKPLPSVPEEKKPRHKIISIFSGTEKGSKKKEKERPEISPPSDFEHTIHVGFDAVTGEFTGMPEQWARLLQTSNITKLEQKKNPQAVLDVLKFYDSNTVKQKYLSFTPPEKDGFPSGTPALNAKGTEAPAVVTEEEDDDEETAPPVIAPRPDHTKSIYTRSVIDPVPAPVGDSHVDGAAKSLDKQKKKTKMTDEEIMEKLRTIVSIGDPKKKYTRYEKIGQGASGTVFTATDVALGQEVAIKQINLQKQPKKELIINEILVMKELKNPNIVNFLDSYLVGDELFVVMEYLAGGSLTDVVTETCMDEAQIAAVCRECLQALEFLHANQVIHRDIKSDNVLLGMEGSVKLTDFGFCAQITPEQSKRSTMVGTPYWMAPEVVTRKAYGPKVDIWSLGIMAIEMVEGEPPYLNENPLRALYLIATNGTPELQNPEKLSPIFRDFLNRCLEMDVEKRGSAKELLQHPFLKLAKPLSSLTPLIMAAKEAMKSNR
UniProt O96013: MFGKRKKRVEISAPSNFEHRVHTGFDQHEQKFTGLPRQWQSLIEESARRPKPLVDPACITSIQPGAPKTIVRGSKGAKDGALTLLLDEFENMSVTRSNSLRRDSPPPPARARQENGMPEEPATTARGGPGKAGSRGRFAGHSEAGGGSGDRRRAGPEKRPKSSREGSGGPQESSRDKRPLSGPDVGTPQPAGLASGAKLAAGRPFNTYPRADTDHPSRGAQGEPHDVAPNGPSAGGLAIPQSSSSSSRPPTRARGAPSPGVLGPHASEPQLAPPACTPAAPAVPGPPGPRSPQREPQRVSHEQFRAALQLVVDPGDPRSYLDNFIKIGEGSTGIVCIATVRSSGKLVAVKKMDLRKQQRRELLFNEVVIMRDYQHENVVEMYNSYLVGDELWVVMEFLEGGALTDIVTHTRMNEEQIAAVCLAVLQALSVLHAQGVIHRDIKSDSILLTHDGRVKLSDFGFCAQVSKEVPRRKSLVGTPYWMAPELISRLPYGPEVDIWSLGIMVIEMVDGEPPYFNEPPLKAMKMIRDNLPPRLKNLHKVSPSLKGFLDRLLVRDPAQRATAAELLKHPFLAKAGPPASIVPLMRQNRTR
UniProt Q9H792: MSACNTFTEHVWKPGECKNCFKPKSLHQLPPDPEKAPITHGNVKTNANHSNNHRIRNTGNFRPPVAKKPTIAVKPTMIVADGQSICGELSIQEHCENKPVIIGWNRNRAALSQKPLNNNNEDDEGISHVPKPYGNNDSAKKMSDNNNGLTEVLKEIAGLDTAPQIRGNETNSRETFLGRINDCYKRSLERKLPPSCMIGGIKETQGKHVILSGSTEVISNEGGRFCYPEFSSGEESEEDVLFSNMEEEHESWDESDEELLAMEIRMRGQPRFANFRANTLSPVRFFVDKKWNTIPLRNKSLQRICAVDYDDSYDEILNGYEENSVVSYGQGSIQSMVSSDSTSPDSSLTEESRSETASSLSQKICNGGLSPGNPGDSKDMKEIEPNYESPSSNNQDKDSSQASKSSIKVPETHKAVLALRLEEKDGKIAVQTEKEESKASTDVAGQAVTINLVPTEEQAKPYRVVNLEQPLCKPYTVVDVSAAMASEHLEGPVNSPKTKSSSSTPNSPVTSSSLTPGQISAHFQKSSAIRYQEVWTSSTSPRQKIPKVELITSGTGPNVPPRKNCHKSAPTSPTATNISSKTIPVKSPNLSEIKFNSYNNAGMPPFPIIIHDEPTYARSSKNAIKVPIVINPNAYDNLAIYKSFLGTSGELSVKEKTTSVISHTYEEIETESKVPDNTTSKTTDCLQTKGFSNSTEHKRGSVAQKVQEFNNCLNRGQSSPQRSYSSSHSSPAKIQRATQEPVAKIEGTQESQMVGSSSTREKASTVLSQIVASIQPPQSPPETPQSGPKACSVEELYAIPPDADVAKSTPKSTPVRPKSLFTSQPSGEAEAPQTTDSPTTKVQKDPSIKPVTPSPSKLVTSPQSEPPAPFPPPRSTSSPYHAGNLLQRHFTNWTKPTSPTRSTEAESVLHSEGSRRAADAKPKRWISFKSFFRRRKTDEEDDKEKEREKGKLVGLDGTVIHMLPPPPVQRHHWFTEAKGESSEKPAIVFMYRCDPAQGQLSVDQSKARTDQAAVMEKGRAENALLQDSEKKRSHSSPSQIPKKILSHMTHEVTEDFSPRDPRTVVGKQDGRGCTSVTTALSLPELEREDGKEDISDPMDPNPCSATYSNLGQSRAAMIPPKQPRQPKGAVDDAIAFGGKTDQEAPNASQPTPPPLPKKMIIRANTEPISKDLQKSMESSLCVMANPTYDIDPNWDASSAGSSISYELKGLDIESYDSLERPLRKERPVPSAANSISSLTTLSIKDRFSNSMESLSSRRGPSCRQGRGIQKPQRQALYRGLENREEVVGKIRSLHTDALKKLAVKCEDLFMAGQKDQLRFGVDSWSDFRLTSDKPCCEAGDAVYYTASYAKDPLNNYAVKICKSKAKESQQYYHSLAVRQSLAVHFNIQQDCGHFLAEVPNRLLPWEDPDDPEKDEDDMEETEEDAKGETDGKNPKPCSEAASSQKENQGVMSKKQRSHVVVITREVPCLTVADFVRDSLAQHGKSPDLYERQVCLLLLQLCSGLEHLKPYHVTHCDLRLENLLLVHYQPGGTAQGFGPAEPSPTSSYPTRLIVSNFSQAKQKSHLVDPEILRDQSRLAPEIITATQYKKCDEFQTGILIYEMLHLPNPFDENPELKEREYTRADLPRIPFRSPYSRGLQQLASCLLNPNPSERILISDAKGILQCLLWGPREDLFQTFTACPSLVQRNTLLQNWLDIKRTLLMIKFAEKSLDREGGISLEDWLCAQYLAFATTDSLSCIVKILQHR
UniProt O00401: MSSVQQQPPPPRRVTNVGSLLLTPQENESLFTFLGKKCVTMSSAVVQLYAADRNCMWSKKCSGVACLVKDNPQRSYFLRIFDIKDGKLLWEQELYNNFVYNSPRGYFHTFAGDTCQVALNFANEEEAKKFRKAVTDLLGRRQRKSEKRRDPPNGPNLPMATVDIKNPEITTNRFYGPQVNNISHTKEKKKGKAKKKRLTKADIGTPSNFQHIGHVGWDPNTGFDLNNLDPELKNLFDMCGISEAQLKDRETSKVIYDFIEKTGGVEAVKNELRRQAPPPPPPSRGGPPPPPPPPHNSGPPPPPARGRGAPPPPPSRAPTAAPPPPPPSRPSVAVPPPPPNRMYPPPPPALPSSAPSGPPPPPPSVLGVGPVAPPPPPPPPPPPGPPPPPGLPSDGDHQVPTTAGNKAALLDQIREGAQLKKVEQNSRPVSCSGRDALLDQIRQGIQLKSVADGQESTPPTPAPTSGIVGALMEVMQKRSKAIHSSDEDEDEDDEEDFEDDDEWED

B1: GIT2 (protein, UniProt Q14161 1-759)
chain: MSKRLRSSEVCADCSGPDPSWASVNRGTFLCDECCSVHRSLGRHISQVRHLKHTPWPPTLLQMVETLYNNGANSIWEHSLLDPASIMSGRRKANPQDKVHPNKAEFIRAKYQMLAFVHRLPCRDDDSVTAKDLSKQLHSSVRTGNLETCLRLLSLGAQANFFHPEKGNTPLHVASKAGQILQAELLAVYGADPGTQDSSGKTPVDYARQGGHHELAERLVEIQYELTDRLAFYLCGRKPDHKNGQHFIIPQMADSSLDLSELAKAAKKKLQSLSNHLFEELAMDVYDEVDRRETDAVWLATQNHSALVTETTVVPFLPVNPEYSSTRNQGRQKLARFNAHEFATLVIDILSDAKRRQQGSSLSGSKDNVELILKTINNQHSVESQDNDQPDYDSVASDEDTDLETTASKTNRQKSLDSDLSDGPVTVQEFMEVKNALVASEAKIQQLMKVNNNLSDELRIMQKKLQTLQSENSNLRKQATTNVYQVQTGSEYTDTSNHSSLKRRPSARGSRPMSMYETGSGQKPYLPMGEASRPEESRMRLQPFPAHIGRSALVTSSSSLPSFPSTLSWSRDESARRASRLEKQNSTPESDYDNTPNDMEPDGMGSSRKGRQRSMVWPGDGLVPDTAEPHVAPSPTLPSTEDVIRKTEQITKNIQELLRAAQENKHDSYIPCSERIHVAVTEMAALFPKKPKSDMVRTSLRLLTSSAYRLQSECKKTLPGDPGSPTDVQLVTQQVIQCAYDIAKAAKQLVTITTKENNN

Molecular target: T1, FLAG-tagged RHOV (UniProt Q96L33)
T1 sequence: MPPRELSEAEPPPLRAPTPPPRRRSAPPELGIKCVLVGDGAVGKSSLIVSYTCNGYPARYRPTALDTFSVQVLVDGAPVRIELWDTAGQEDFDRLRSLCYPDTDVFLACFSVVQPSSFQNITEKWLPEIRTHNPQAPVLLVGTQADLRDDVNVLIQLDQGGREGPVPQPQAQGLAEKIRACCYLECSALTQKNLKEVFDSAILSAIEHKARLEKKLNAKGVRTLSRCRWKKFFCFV
Assay: affinity purification with mass spectrometry

Molecule | binding
CLH1 (from UniProt Q00610 1-1675) | binds
DLG5 (from UniProt Q8TDM6 1-1919) | binds
IQGAP1 (from UniProt P46940 1-1657) | binds
NCK2 (from UniProt O43639 1-380) | binds
PAK1 (from UniProt Q13153 1-545) | binds
PAK2 (from UniProt Q13177 1-524) | binds
PAK4 (from UniProt O96013 1-591) | binds
Pseudopodium Enriched Atypical Kinase 1 (PEAK1) (from UniProt Q9H792 1-1746) | binds
WASL (from UniProt O00401 1-505) | binds
B1 | binds
